Results are given in words; binding and its absence hold for the method and conditions named. Some entries that bind do so weakly or less than the wild type. Tags and fused reporters may be left off the sequences shown.
Target: BAG3 (HIS-fusion protein) (UniProt O95817)
Assay: pull-down; 1 µM HIS-BAG3 on Ni-NTA-agarose, 1.5 µM MBP-PDLIM3/MBP preparation; 20 mM MOPS pH 7.2, 100 mM KCl, 40 mM imidazol; 1 h on ice; eluted with 200 mM imidazol; SDS-PAGE and immunoblotting; both purified

Sequences of proteins named here, by UniProt entry; tags and fusion partners are left off.
UniProt O95817: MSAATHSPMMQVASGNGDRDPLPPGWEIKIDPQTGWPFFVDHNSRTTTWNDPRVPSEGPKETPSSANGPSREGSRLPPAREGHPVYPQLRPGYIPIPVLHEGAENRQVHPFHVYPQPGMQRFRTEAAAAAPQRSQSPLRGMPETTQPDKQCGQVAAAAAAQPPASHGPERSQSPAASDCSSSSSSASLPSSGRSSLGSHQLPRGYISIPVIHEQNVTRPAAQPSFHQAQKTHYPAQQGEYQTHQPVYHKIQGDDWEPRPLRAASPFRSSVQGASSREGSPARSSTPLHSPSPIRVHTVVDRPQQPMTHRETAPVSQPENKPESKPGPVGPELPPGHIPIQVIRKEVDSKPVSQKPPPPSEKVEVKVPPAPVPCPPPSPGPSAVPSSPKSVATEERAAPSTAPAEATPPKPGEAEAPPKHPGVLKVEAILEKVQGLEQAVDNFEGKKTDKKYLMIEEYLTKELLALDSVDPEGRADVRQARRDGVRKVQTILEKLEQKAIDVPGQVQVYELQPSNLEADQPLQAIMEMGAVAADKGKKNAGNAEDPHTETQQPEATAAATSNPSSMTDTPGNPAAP

B1: MBP-PDLIM3 (protein, UniProt Q53GG5 1-364)
chain: MPQTVILPGPAPWGFRLSGGIDFNQPLVITRITPGSKAAAANLCPGDVILAIDGFGTESMTHADAQDRIKAAAHQLCLKIDRGETHLWSPQVSEDGKAHPFKINLESEPQDGNYFEHKHNIRPKPFVIPGRSSGCSTPSGIDCGSGRSTPSSVSTVSTICPGDLKVAAKLAPNIPLEMELPGVKIVHAQFNTPMQLYSDDNIMETLQGQVSTALGETPLMSEPTASVPPESDVYRMLHDNRNEPTQPRQSGSFRVLQGMVDDGSDDRPAGTRSVRAPVTKVHGGSGGAQRMPLCDKCGSGIVGAVVKARDKYRHPECFVCADCNLNLKQKGYFFIEGELYCETHARARTKPPEGYDTVTLYPKA
  binding: binds

Reference: publication PMC13415819
